Source: PubChem BioAssay AID485298 (National Center for Advancing Translational Sciences (NCATS), 2010)
The whole screen tested about 320,000 compounds, of which about 740 (0.23%) were called active. This list was built around the results that the source calls inconclusive (neither active nor inactive); the mix of calls is not that of the screen. Calls come from the whole dose curve; as a rule, active = well fitted activation curve with a large enough effect; inconclusive = small, poorly fitted or top-dose-only effect; inactive = no such curve, though single readings can be large or run the other way. Where the call is inconclusive, the potency comes from a doubtful curve fit. Some structures have more than one record in an assay (separate samples or runs), and their calls can disagree.

Test: qHTS Assay for Small Molecule Inhibitors of Mitochondrial Division or Activators of Mitochondrial Fusion; note: nearly all actives have a fitted effect of over 45% in size; for growth rescue (activation): % of control where 0% means no effect
Conditions: S. cerevisiae fusion-defective mutant growth rescue, CellTiterGlo 48 h; growth rescue (activation): at 46.1 µM (top of the series) unless noted
Outline: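 S. cerevisiae fusion-defective temperature-sensitive mutants (e.g. fzo1-1, mgm1-5) grown 48 h at 37C in YPEG (ethanol/glycerol non-fermentable) medium with 23 nl compound per well; growth rescue read as CellTiterGlo luminescence.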
Potency is the fitted concentration of half-maximal effect.

| SMILES | Potency | growth rescue (activation) |
| --- | --- | --- |
| Cc1noc(C)c1CSc1ncnc2sc3c(c12)CCCCC3 | inconclusive: 35.5 µM [activator, single point] |  |
| COc1ccc(C)cc1NC(=O)C(OC(=O)c1cccc(S(=O)(=O)N(C)c2ccccc2)c1)c1ccccc1 (configuration not stated) | inconclusive: 5.62 µM [activator, single point] |  |
| CCCCCCCC/C=C\CCCCCCCC(=O)NCCc1ccc(O)c(O)c1 | inconclusive: 23.1 µM [activator, single point] |  |
| COc1cccc(/C=N/n2c(=O)[nH]c3ccccc32)c1OC | inconclusive: 14.1 µM [activator, single point] |  |
| COc1ccc(S(=O)(=O)N2CCCCC2)cc1NC(=O)C1COc2ccccc2O1 (configuration not stated) | inconclusive: 35.5 µM [activator, single point] |  |
| C[C@]12CC[C@@H]3c4ccc(O)cc4CC[C@H]3[C@@H]1CCC2=O | active: 5.8 µM |  |
| Cc1cccc(OCc2n[nH]c(=S)n2-c2ccccc2)c1 |  | inactive: 2.66% |
| O=C(Nc1nnc(-c2ccccc2)o1)c1cc(Cl)sc1Cl | inconclusive: 5.62 µM [activator, single point] |  |
| Cc1cccc(N2CCN(C(=O)c3ccc4c(c3)CCN4S(C)(=O)=O)CC2)c1C | inconclusive: 2 µM [activator, full curve, poor fit] |  |
| C=CC[C@@H]1C=C[C@H](O/N=C/c2ccc(C(=O)N3[C@H](c4ccc(C)cc4)[C@@H](C)CC[C@H]3C(=O)OC)cc2)[C@@H](CO)O1 | inconclusive: 15.8 µM [activator, partial curve] |  |
| CC(=O)Nc1ccc(S(=O)(=O)Nc2ccc3c(c2)CCC3)cc1 | inconclusive: 1.26 µM [activator, full curve] |  |
| CCOc1ccc(CN(C(=O)c2oc3cc(C)ccc3c2C)C2CCS(=O)(=O)C2)cc1 (configuration not stated) | inconclusive: 10 µM [activator, partial curve] |  |
| N#CC1=C(S)N(c2ccc(F)cc2)C(c2ccco2)NC1=O (configuration not stated) |  | inactive: -4.93% |
| COc1ccc(Cl)cc1NC(=O)CN(C)C(=O)c1sccc1-c1ccccc1 | inconclusive: 35.5 µM [activator, single point] |  |
| Cc1ccc(Cl)c(OCC(=O)NC2CCN(Cc3ccccc3)CC2)c1 | inconclusive: 10 µM [activator, partial curve] |  |
| Cc1nn(Cc2ccc(C(=O)Nc3ccccc3F)cc2)c(C)c1Cl | inconclusive: 35.5 µM [activator, single point] |  |
| Cc1cc(Oc2ccc(Cl)cc2)nc(-c2ccccc2O)n1 | inconclusive: 6.31 µM [activator, single point] |  |

An excerpt of these results, as labelled records.
O=C(Nc1nnc(-c2ccccc2)o1)c1cc(Cl)sc1Cl
  Potency: inconclusive: 5.62 µM [activator, single point]
Cc1cccc(N2CCN(C(=O)c3ccc4c(c3)CCN4S(C)(=O)=O)CC2)c1C
  Potency: inconclusive: 2 µM [activator, full curve, poor fit]
